These are yes or no findings as the source states them, for the method shown. In cells and extracts the contact can be indirect. Some entries that bind do so weakly or less than the wild type.
Target: ARID1A (human (endogenous in 12Z)) (UniProt O14497)
Assay: co-IP; 12Z nuclear extract (500 ug) in IP buffer (20 mM HEPES, 150 mM KCl, 10% glycerol, 0.2 mM EDTA, 0.1% Tween-20, 0.5 mM DTT); anti-ARID1A (D2A8U) or anti-CHD4 (D8B12) on Protein A Dynabeads, overnight at 4 °C; washes at 150, 300, 100 and 60 mM KCl; normal rabbit IgG as control; immunoblot

Amino acid sequences for entries named in this document (tags omitted).
UniProt O14497: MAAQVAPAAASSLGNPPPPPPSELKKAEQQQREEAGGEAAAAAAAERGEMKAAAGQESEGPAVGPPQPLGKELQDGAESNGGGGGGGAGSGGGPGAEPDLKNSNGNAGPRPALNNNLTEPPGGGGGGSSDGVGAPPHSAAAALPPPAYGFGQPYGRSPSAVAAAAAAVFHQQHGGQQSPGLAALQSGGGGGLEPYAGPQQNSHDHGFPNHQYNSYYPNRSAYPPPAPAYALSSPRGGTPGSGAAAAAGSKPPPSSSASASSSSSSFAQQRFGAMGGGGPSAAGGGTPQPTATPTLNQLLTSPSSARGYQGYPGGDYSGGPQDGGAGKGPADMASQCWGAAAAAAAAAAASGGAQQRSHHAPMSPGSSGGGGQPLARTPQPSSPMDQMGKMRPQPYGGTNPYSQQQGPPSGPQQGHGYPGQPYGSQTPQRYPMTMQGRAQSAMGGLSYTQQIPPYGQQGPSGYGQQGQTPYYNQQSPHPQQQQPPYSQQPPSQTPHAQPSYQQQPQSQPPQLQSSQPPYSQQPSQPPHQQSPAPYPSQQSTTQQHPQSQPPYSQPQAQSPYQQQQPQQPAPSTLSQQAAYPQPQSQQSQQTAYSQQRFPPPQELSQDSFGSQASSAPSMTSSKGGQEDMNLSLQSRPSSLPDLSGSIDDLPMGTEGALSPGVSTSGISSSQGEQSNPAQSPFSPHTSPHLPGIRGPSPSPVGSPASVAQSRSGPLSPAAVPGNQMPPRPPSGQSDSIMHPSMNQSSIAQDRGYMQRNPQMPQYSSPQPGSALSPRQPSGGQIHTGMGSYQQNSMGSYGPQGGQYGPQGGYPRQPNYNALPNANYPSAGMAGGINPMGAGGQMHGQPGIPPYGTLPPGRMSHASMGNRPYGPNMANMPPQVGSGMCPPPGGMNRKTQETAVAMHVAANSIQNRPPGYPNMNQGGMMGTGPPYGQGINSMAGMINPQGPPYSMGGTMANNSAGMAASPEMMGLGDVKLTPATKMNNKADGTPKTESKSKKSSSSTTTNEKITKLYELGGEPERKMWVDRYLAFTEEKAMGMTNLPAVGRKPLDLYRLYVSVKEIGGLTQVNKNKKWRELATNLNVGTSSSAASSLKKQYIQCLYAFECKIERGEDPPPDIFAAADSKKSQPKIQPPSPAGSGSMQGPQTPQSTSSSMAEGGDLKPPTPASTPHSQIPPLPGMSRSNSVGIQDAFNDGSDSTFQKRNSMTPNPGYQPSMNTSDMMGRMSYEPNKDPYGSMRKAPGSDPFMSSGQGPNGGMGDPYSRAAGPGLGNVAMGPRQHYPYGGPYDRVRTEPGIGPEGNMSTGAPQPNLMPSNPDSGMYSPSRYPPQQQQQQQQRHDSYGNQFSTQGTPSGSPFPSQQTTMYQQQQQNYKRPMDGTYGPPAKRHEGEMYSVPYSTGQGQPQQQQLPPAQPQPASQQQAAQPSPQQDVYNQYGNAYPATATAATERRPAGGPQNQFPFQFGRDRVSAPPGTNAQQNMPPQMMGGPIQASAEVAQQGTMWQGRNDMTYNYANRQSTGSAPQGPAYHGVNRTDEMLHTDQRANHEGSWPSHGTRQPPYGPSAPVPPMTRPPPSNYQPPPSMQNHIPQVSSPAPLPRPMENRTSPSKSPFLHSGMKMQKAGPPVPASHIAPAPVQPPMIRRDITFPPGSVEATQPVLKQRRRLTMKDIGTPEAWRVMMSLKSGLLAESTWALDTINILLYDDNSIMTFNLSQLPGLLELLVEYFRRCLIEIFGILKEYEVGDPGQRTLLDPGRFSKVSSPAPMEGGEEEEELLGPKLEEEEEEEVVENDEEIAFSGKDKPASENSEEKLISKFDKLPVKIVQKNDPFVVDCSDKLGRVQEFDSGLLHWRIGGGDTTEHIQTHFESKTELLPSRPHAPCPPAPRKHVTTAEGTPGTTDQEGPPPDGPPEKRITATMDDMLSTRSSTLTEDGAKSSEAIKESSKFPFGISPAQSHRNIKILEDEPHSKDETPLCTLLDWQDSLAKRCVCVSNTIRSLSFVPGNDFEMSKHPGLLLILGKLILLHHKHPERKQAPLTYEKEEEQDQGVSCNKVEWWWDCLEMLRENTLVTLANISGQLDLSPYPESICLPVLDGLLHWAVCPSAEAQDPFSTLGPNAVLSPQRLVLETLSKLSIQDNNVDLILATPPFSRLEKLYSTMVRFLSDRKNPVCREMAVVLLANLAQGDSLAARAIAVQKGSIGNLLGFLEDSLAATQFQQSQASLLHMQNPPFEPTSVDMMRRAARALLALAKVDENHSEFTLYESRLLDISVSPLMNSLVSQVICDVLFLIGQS
UniProt Q14839: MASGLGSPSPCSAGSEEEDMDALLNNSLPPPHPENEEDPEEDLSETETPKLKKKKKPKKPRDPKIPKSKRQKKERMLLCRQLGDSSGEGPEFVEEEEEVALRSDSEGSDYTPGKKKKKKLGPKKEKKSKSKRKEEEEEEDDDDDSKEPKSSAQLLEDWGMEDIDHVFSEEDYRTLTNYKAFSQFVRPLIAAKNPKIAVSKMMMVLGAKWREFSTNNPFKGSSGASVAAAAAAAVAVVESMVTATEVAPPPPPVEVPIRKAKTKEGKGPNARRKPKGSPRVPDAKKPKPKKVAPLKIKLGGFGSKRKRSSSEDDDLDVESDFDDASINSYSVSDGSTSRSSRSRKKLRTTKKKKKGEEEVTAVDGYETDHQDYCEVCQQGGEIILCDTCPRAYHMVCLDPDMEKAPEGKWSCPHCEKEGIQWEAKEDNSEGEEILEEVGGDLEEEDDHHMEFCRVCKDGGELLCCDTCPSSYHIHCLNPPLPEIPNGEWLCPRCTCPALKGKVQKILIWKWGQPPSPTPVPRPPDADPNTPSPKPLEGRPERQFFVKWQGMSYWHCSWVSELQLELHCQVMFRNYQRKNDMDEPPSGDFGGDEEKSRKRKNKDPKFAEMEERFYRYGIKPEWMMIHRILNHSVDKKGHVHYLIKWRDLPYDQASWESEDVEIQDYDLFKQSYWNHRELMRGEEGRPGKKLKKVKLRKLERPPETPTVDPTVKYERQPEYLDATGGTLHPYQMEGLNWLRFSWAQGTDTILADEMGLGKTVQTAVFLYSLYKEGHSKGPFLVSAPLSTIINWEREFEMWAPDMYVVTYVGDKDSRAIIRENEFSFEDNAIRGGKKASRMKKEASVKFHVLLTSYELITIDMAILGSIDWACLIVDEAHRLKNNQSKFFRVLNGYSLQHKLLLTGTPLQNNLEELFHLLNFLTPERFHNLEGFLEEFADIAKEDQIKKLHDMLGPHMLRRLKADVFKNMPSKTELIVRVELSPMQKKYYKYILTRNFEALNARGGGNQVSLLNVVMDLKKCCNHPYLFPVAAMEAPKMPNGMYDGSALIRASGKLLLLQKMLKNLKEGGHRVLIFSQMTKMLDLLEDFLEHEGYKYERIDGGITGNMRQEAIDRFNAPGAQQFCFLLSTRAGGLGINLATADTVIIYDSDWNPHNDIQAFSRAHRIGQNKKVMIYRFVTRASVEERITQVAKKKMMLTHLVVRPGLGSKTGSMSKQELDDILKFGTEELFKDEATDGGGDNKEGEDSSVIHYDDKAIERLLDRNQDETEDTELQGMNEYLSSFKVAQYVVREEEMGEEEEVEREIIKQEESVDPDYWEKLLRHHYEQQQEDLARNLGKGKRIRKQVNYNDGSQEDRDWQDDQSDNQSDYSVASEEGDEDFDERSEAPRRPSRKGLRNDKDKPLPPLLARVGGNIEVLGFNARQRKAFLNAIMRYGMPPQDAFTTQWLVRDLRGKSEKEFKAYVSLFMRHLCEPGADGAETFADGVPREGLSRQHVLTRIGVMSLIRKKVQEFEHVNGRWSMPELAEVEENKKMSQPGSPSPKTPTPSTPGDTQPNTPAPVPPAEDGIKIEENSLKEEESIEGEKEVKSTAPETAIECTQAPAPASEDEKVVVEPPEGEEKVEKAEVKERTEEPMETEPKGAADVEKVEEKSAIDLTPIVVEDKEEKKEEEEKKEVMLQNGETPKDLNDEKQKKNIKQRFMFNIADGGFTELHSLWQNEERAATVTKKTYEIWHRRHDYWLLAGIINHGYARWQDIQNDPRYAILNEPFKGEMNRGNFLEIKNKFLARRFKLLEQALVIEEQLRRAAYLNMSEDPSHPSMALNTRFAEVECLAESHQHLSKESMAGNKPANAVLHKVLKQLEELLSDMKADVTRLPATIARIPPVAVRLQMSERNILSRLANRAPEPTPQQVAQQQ

binding: binds
Substance: CHD4 (from UniProt Q14839 1-1912)

From article PMC9509632
